Source: the supplement of paper PMC6418307
Single values of this set are uncertain.

System: primary mouse cortical neurons
Experiment: cell health score (luciferase spike-in reads / total reads per well) (fraction); higher = fewer cellular reads, worse cell health / toxicity
Conditions: treatment time 24 h
[1] = 0.01 µM, sex of neuron culture: Female
[2] = 0.01 µM, sex of neuron culture: Male
[3] = 0.1 µM, sex of neuron culture: Female
[4] = 0.1 µM, sex of neuron culture: Male
[5] = 1 µM, sex of neuron culture: Female
[6] = 1 µM, sex of neuron culture: Male
[7] = 10 µM, sex of neuron culture: Female
[8] = 10 µM, sex of neuron culture: Male

Structure (SMILES)	cell health score [1]	cell health score [2]	cell health score [3]	cell health score [4]	cell health score [5]	cell health score [6]	cell health score [7]	cell health score [8]
N#Cc1c(Cl)cccc1Cl [Dichlobenil]	0.000683	0.000806	0.00143	0.000863	0.00105	0.000703	0.00121	0.000404
CC(Oc1ccc(Cl)cc1Cl)C(=O)O (stereo not given) [Dichlorprop]	0.000488	0.000642	0.00104	0.000762	0.000968	0.000611	0.00124	0.000607
COP(=O)(OC)OC=C(Cl)Cl [Dichlorvos]	0.000541	0.00086	0.000613	0.000763	0.000724	0.000606	0.00135	0.000531
COC(=O)C(C)Oc1ccc(Oc2ccc(Cl)cc2Cl)cc1 (stereo not given) [Diclofop-methyl]	0.000522	0.000883	0.000582	0.000881	0.000635	0.000435	0.000836	0.000702
Nc1c(Cl)cc([N+](=O)[O-])cc1Cl [Dicloran]	0.00053	0.000754	0.000754	0.000838	0.001	0.000726	0.00126	0.000774
CCOc1nc(F)cc2nc(S(=O)(=O)Nc3c(Cl)cccc3Cl)nn12 [Diclosulam]	0.000639	0.000783	0.000711	0.00114	0.00086	0.000753	0.00112	0.000893
OC(c1ccc(Cl)cc1)(c1ccc(Cl)cc1)C(Cl)(Cl)Cl [Dicofol]	0.000503	0.000848	0.000795	0.000947	0.000782	0.000642	0.0016	0.000773
COP(=O)(OC)O/C(C)=C/C(=O)N(C)C [Dicrotophos]	0.00064	0.000741	0.00104	0.000629	0.000986	0.000625	0.00103	0.000881
CC1COC(Cn2cncn2)(c2ccc(Oc3ccc(Cl)cc3)cc2Cl)O1 (stereo not given) [Difenoconazole]	0.000603	0.000598	0.000733	0.000787	0.00063	0.000583	0.00107	0.000854
Cn1c(-c2ccccc2)cc(-c2ccccc2)[n+]1C [Difenzoquat metilsulfate]	0.000656	0.000668	0.000542	0.00073	0.00077	0.000522	0.00398	0.0012
COCC(C)N(C(=O)CCl)c1c(C)csc1C (stereo not given) [Dimethenamid]	0.000574	0.00104	0.00168	0.00106	0.00117	0.00071	0.00133	0.00217
CNC(=O)CSP(=S)(OC)OC [Dimethoate]	0.000567	0.000586	0.000745	0.000712	0.000744	0.00056	0.000986	0.000351
COc1ccc(C(=CC(=O)N2CCOCC2)c2ccc(Cl)cc2)cc1OC [Dimethomorph]	0.000583	0.00121	0.000707	0.000947	0.000631	0.000487	0.000885	0.000387
COC(=O)c1ccccc1C(=O)OC [Dimethyl phthalate]	0.00063	0.00078	0.00143	0.000725	0.000463	0.000599	0.000799	0.000581
CC(C)(C)C(O)/C(=C/c1ccc(Cl)cc1Cl)n1cncn1 (stereo not given) [Diniconazole]	0.000526	0.000624	0.00102	0.00105	0.000703	0.0004	0.0008	0.000713
c1ccc(Nc2ccccc2)cc1 [Diphenylamine]	0.000572	0.00406	0.000717	0.00057	0.000706	0.00069	0.000789	0.000745
CCCOC(=O)c1ccc(C(=O)OCCC)nc1 [Dipropyl pyridine-2,5-dicarboxylate]	0.000627	0.000655	0.000624	0.000783	0.000759	0.000538	0.000978	0.000687
c1cc[n+]2c(c1)-c1cccc[n+]1CC2 [Diquat dibromide monohydrate]	0.000482	0.000763	0.00116	0.000752	0.00106	0.000756	0.00506	0.00308
CCOP(=S)(OCC)SCCSCC [Disulfoton]	0.000524	0.000728	0.000868	0.000735	0.000895	0.000659	0.000968	0.000451
CSC(=O)c1c(C(F)F)nc(C(F)(F)F)c(C(=O)SC)c1CC(C)C [Dithiopyr]	0.000515	0.00109	0.000591	0.00105	0.00195	0.000474	0.00172	0.0012
CN(C)C(=O)Nc1ccc(Cl)c(Cl)c1 [Diuron]	0.000436	0.000652	0.000623	0.000825	0.000738	0.000665	0.000786	0.000668
CC[C@H](C)C1O[C@]2(C=C[C@@H]1C)C[C@@H]1C[C@@H](C/C=C(\C)[C@@H](O[C@H]3C[C@H](OC)[C@@H](O[C@H]4C[C@H](OC)[C@H](NC)[C@H](C)O4)[C@H](C)O3)[C@@H](C)/C=C/C=C3\CO[C@@H]4[C@H](O)C(C)=C[C@@H](C(=O)O1)[C@]34O)O2 (stereo not given in full) [Emamectin benzoate]	0.000487	0.000953	0.000822	0.00108	0.000886	0.000703	0.216	–
O=S1OCC2C(CO1)C1(Cl)C(Cl)=C(Cl)C2(Cl)C1(Cl)Cl (stereo not given) [Endosulfan]	0.000528	0.000682	0.000984	0.000787	0.000829	0.000625	0.00139	0.00059
Oc1ccc([C@H]2COc3cc(O)ccc3C2)cc1 [Equol]	0.00066	0.000748	0.00102	0.000979	0.000836	0.000906	0.000659	0.000841
CC(C)[C@H](C(=O)O[C@H](C#N)c1cccc(Oc2ccccc2)c1)c1ccc(Cl)cc1 [Esfenvalerate]	0.000548	0.000976	0.00089	0.00114	0.000837	0.000753	0.000918	0.000557
C=C(C)CN(CC)c1c([N+](=O)[O-])cc(C(F)(F)F)cc1[N+](=O)[O-] [Ethalfluralin]	0.000414	0.000988	0.000883	0.00105	0.000846	0.000473	0.00124	0.000426

Gathered by group: those above containing a CF3 group
Structure (SMILES)	cell health score [1]	cell health score [2]	cell health score [3]	cell health score [4]	cell health score [5]	cell health score [6]	cell health score [7]	cell health score [8]
CSC(=O)c1c(C(F)F)nc(C(F)(F)F)c(C(=O)SC)c1CC(C)C [Dithiopyr]	0.000515	0.00109	0.000591	0.00105	0.00195	0.000474	0.00172	0.0012
C=C(C)CN(CC)c1c([N+](=O)[O-])cc(C(F)(F)F)cc1[N+](=O)[O-] [Ethalfluralin]	0.000414	0.000988	0.000883	0.00105	0.000846	0.000473	0.00124	0.000426

Carrying on:

Structure (SMILES)	cell health score [1]	cell health score [2]	cell health score [3]	cell health score [4]	cell health score [5]	cell health score [6]	cell health score [7]	cell health score [8]
O=P(O)(O)CCCl [Ethephon]	0.000522	0.000569	0.00219	0.000874	0.00098	0.000787	0.00135	0.000503
CCOC1Oc2ccc(OS(C)(=O)=O)cc2C1(C)C (stereo not given) [Ethofumesate]	0.000448	0.000732	0.00072	0.000728	0.00077	0.000522	0.000917	0.000519
CCCSP(=O)(OCC)SCCC [Ethoprop]	0.000722	0.000795	0.000623	0.000987	0.00095	0.000812	0.00133	0.00078
S=C1NCCN1 [Ethylene thiourea]	0.000552	0.000876	0.000519	0.000899	0.000885	0.000619	0.00111	0.00105
CCOc1cc(C(C)(C)C)ccc1C1COC(c2c(F)cccc2F)=N1 (stereo not given) [Etoxazole]	0.000414	0.000609	0.00114	0.000542	0.000548	0.000559	0.00116	0.000636
CSC1=N[C@@](C)(c2ccccc2)C(=O)N1Nc1ccccc1 [Fenamidone]	0.000628	0.000817	0.000671	0.000856	0.000987	0.000382	0.00244	0.00184
CCOP(=O)(O)N(c1ccc(SC)c(C)c1)C(C)C [Fenamiphos]	0.000604	0.000747	0.000616	0.000867	0.000803	0.00067	0.00123	0.000595
OC(c1ccc(Cl)cc1)(c1cncnc1)c1ccccc1Cl (stereo not given) [Fenarimol]	0.000538	0.000831	0.000807	0.000833	0.000746	0.000703	0.000944	0.000504
CC(C)(C)c1ccc(CCOc2ncnc3ccccc23)cc1 [Fenazaquin]	0.00215	0.0168	0.00699	0.0105	0.0146	0.00925	0.0141	0.0121
N#CC(CCc1ccc(Cl)cc1)(Cn1cncn1)c1ccccc1 (stereo not given) [Fenbuconazole]	0.000443	0.000752	0.000761	0.000729	0.00104	0.00097	0.000905	0.000898
CC1(C(=O)Nc2ccc(O)c(Cl)c2Cl)CCCCC1 [Fenhexamid]	0.000453	0.000898	0.000832	0.000909	0.00116	0.000813	0.000981	0.000589
COP(=S)(OC)Oc1ccc([N+](=O)[O-])c(C)c1 [Fenitrothion]	0.000568	0.000903	0.000761	0.000823	0.00072	0.000594	0.00108	0.00072
CCOC(=O)C(C)Oc1ccc(Oc2nc3ccc(Cl)cc3o2)cc1 (stereo not given) [Fenoxaprop-ethyl]	0.000615	0.000813	0.000903	0.000816	0.000701	0.000667	0.00058	0.000509
CCOC(=O)NCCOc1ccc(Oc2ccccc2)cc1 [Fenoxycarb]	0.000589	0.000665	0.00197	0.000898	0.000902	0.000489	0.00117	0.000632
CC1(C)C(C(=O)OC(C#N)c2cccc(Oc3ccccc3)c2)C1(C)C (stereo not given) [Fenpropathrin]	0.000561	0.000832	0.00105	0.000731	0.00069	0.000748	0.000641	0.000526
Cc1nn(C)c(Oc2ccccc2)c1C=NOCc1ccc(C(=O)OC(C)(C)C)cc1 [Fenpyroximate (Z,E)]	0.0149	0.0126	0.0108	0.0183	0.018	0.00813	0.0101	0.0112
COP(=S)(OC)Oc1ccc(SC)c(C)c1 [Fenthion]	0.000658	0.00107	0.00167	0.000867	0.00103	0.000617	0.00108	0.000598
N#Cc1nn(-c2c(Cl)cc(C(F)(F)F)cc2Cl)c(N)c1[S+]([O-])C(F)(F)F (stereo not given) [Fipronil]	0.000572	0.000843	0.000751	0.00105	0.00127	0.000696	0.00226	0.00226
CN1CC[C@H](c2c(O)cc(O)c3c(=O)cc(-c4ccccc4Cl)oc23)[C@H](O)C1 [Flavopiridol]	0.000534	0.000709	0.00198	0.000866	0.00853	0.00515	0.00809	0.00681
CCCCOC(=O)[C@@H](C)Oc1ccc(Oc2ccc(C(F)(F)F)cn2)cc1 [Fluazifop-P-butyl]	0.000553	0.000863	0.000745	0.000795	0.000933	0.00046	0.00101	0.000499
CCCCOC(=O)C(C)Oc1ccc(Oc2ccc(C(F)(F)F)cn2)cc1 (stereo not given) [Fluazifop-butyl]	0.000463	0.000964	0.000831	0.000866	0.000806	0.000438	0.00124	0.00226
O=[N+]([O-])c1cc(C(F)(F)F)c(Cl)c([N+](=O)[O-])c1Nc1ncc(C(F)(F)F)cc1Cl [Fluazinam]	0.000609	0.00122	0.000751	0.000937	0.00153	0.00102	0.0251	0.0394
N#Cc1c[nH]cc1-c1cccc2c1OC(F)(F)O2 [Fludioxonil]	0.000405	0.000702	0.00157	0.000727	0.000961	0.000832	0.00103	0.000632
CC(C)N(C(=O)COc1nnc(C(F)(F)F)s1)c1ccc(F)cc1 [Flufenacet]	0.000459	0.000651	0.000701	0.000837	0.000839	0.000648	0.000866	0.000623
CCOC(=O)COc1cc(-n2ncc(C(F)(F)F)c(C)c2=O)c(F)cc1Cl [Flufenpyr-ethyl]	0.000696	0.00106	0.000698	0.000729	0.000741	0.00112	0.00115	0.000573
CCN(Cc1c(F)cccc1Cl)c1c([N+](=O)[O-])cc(C(F)(F)F)cc1[N+](=O)[O-] [Flumetralin]	0.000474	0.000652	0.000663	0.00095	0.000923	0.000639	0.00125	0.000639
